The results in this text go back to PubChem BioAssay AID202 (DTP/NCI, 2004).

The assay relates to HT29 xenograft, nude mice, s.c., tumor weight T/C%. The assay is described as follows: NCI In Vivo Anticancer Drug Screen. Data for tumor model HT29;CX-1 Human Adenocarcinoma (MER+) (subcutaneous) in NU/NU Swiss (nude) mice. Conditions: T/C endpoint: optimum tumor weight change, higher T/C = larger tumour. The procedure: The antitumor activity of compounds was measured in mice bearing transplantable tumors. Survival or tumor size were measured and the results are expressed as the measurement made in the treated group (T) divided by the measurement made in the vehicle treated control group (C). The tumor model used in this assay is HT29;CX-1 Human Adenocarcinoma (MER+) (subcutaneous) in NU/NU Swiss (nude) mice

The mark [1] stands for this setting: dose: 200.0 mg/kg/injection, schedule: Q04DX003 (ip), vehicle: suspension in saline.
The mark [2] stands for this setting: dose: 400.0 mg/kg/injection, schedule: Q04DX003 (ip), vehicle: suspension in saline.

Structures are written as SMILES. The list is a part of this screen's results and no random one: it gathers tests that were run many times, whatever their T/C, doses with no T/C, and many T/C values between a quarter and a half above the control. Other doses and runs of a compound stand elsewhere. T/C: endpoint of the treated group in % of that of the vehicle group. Schedule codes are those of the source, read here as Q, the interval in days (D) or hours (H), X, the number of doses. Some doses were run more than once; the results are listed from low to high. Some T/C values carry the count of animals alive at the toxicity check (mostly the fifth day); without a count, all were alive then. Some entries give survivors of the animals treated and no T/C: the source files T/C as zero there, which appears to mark a toxic dose or a test without result, not a measured value. Survivors were counted at the toxicity check, usually on the fifth day, unless a day is given; later deaths do not show. Counts like (3×) give the number of equal values in this list.

On to `N=C(N)SCc1c2ccccc2c(CSC(=N)N)c2ccccc12`, for which the survivor count (dose: 100.0 mg/kg/injection, schedule: Q04DX003 (ip), vehicle: suspension in saline) is given as 0 of 5 on day 40; the survivor count under setting [1] is 0 of 5 on day 40; the survivor count under setting [2] is 0 of 5 on day 40.
`CN1N=C(N)c2cn(C3OC(COP(=O)(O)O)C(O)C3O)c3ncnc1c23` (centres undefined): the survivor count is, setting by setting: (dose: 100.0 mg/kg/injection, schedule: Q04DX003 (ip), vehicle: water) 1 of 5 on day 35; (dose: 200.0 mg/kg/injection, schedule: Q04DX003 (ip), vehicle: water) 0 of 5 on day 35.
Take `CC(=O)OCC(=O)[C@@]12OC(C)(C)O[C@@H]1C[C@H]1[C@@H]3CC(C=O)=C4C=C(OCCCl)CC[C@]4(C)[C@@]3(F)[C@@H](O)C[C@@]12C`: the survivor count (dose: 100.0 mg/kg/injection, schedule: Q04DX003 (ip), vehicle: Klucel (hydroxypropylcellulose) (HPC)) is 1 of 5 on day 40 and 3 of 5 on day 36.
Turning to `COC(OC(CO)C(O)S(=O)(=O)O)C(O)S(=O)(=O)O` (centres undefined), the survivor count runs as follows: (dose: 800.0 mg/kg/injection, schedule: Q04DX003 (ip), vehicle: suspension in saline) 3 of 5 on day 36; (dose: 1600.0 mg/kg/injection, schedule: Q04DX003 (ip), vehicle: suspension in saline) 0 of 5 on day 36.
For the compound `CC1OC(OC2CC(O)(C(=O)CO)Cc3c(O)c4c(c(O)c32)C(=O)c2ccccc2C4=O)CC(N)C1O` (centres undefined), the survivor count reads like this: (dose: 0.5 mg/kg/injection, schedule: Q04DX003 (ip), vehicle: water) 2 of 5 on day 38; (dose: 1.0 mg/kg/injection, schedule: Q04DX003 (ip), vehicle: water) 0 of 5 on day 38; (dose: 2.0 mg/kg/injection, schedule: Q04DX003 (ip), vehicle: water) 0 of 5 on day 38.
With `N=C(N)Sc1ccccn1`, the survivor count (dose: 400.0 mg/kg/injection, schedule: Q04DX003 (ip), vehicle: saline) is recorded as 2 of 5 on day 35.
For `CC(C)CCCCCCCCCCCCC(=O)NCC(=O)NC1C(O)C(O)C(Nc2ncnc3nc[nH]c23)OC1C(O)CO` (centres undefined), the T/C (dose: 1.5 mg/kg/injection, schedule: Q04DX003 (ip), vehicle: suspension in saline, evaluated on day 41) was 144 % of control. For the same compound, the survivor count is 2 of 5 on day 41 (dose: 6.0 mg/kg/injection, schedule: Q04DX003 (ip), vehicle: suspension in saline); 1 of 5 on day 41 (dose: 12.0 mg/kg/injection, schedule: Q04DX003 (ip), vehicle: suspension in saline); 0 of 5 on day 41 (2×) and 3 of 5 on day 41 (dose: 24.0 mg/kg/injection, schedule: Q04DX003 (ip), vehicle: suspension in saline).
Turning to `CN(CO)c1nc(N(C)CO)nc(N(C)CO)n1`, the survivor count is, setting by setting: (dose: 200.0 mg/kg/injection, schedule: Q01DX005 (ip), vehicle: Klucel (hydroxypropylcellulose) (HPC)) 1 of 5 and 3 of 5; under setting [1], 2 of 5 on day 35; under setting [2], 1 of 5 on day 35.
Take `CC(=O)Oc1ccc[nH]c1=O`: the T/C (dose: 800.0 mg/kg/injection, schedule: Q04DX003 (ip), vehicle: saline with Tween-80, evaluated on day 33) was 138 % of control. Also, where the note is “dose: 1600.0 mg/kg/injection, schedule: Q04DX003 (ip), vehicle: saline with Tween-80”, the survivor count is reported as 3 of 5 on day 35.
As to `C=CC(=O)N1CN(C(=O)C=C)CN(C(=O)C=C)C1`, the survivor count was 0 of 5 on day 40 (dose: 12.5 mg/kg/injection, schedule: Q01DX003 (ip), vehicle: saline with Tween-80) and 0 of 5 on day 40 (dose: 25.0 mg/kg/injection, schedule: Q01DX003 (ip), vehicle: saline with Tween-80).
On to `Cc1c(N)nc([C@H](CC(N)=O)NC[C@H](N)C(N)=O)nc1C(=O)N[C@H](C(=O)N[C@H](C)[C@@H](O)[C@H](C)C(=O)N[C@H](C(=O)NCCc1nc(-c2nc(C(=O)NCCC[S+](C)C)cs2)cs1)[C@@H](C)O)C(OC1OC(CO)C(O)C(O)C1OC1OC(CO)C(O)C(OC(N)=O)C1O)c1cnc[nH]1` (some centres undefined), for which the survivor count (dose: 7.5 mg/kg/injection, schedule: Q04DX003 (ip), vehicle: saline) is listed as 2 of 5 on day 36; the survivor count (dose: 15.0 mg/kg/injection, schedule: Q04DX003 (ip), vehicle: saline) was 3 of 5 on day 36; the survivor count (dose: 30.0 mg/kg/injection, schedule: Q04DX003 (ip), vehicle: saline) was 2 of 5 on day 42; the survivor count (dose: 30.0 mg/kg/injection, schedule: Q04DX004 (ip), vehicle: saline) is reported as 0 of 5 on day 35; the survivor count (dose: 32.0 mg/kg/injection, schedule: Q04DX003 (ip), vehicle: saline) is given as 3 of 5 on day 36; the survivor count (dose: 60.0 mg/kg/injection, schedule: Q04DX003 (ip), vehicle: saline) is 2 of 5 on day 42 and 3 of 5 on day 35. Further, the survivor count was 0 of 5 on day 35 (dose: 60.0 mg/kg/injection, schedule: Q04DX004 (ip), vehicle: saline) and 2 of 5 on day 36 (dose: 64.0 mg/kg/injection, schedule: Q04DX003 (ip), vehicle: saline). Also, the T/C reads like this: (dose: 15.0 mg/kg/injection, schedule: Q04DX003 (ip), vehicle: saline, evaluated on day 33) 30 % of control; (dose: 15.0 mg/kg/injection, schedule: Q04DX003 (ip), vehicle: saline, evaluated on day 34) 52 % of control; (dose: 15.0 mg/kg/injection, schedule: Q04DX003 (ip), vehicle: saline, evaluated on day 36) 49 % of control; (dose: 15.0 mg/kg/injection, schedule: Q04DX003 (ip), vehicle: saline, evaluated on day 40) 37 % of control; (dose: 30.0 mg/kg/injection, schedule: Q04DX003 (ip), vehicle: saline, evaluated on day 33) 22 % of control; (dose: 30.0 mg/kg/injection, schedule: Q04DX003 (ip), vehicle: saline, evaluated on day 34) 28 and 35 % of control. Further, the T/C is, setting by setting: (dose: 30.0 mg/kg/injection, schedule: Q04DX003 (ip), vehicle: saline, evaluated on day 36) 48 % of control; (dose: 60.0 mg/kg/injection, schedule: Q04DX003 (ip), vehicle: saline, evaluated on day 34) 3 [4 of 5 alive on day 36] and 48 % of control; (dose: 60.0 mg/kg/injection, schedule: Q04DX003 (ip), vehicle: saline, evaluated on day 36) 13 % of control.
For `CS(=O)(=O)OCCN(CCOS(C)(=O)=O)c1ccc(C=Nc2ccc(-c3csc(COc4ccccc4)n3)cc2)cc1`, the survivor count (dose: 400.0 mg/kg/injection, schedule: Q04DX003 (ip), vehicle: Klucel (hydroxypropylcellulose) (HPC)) is 0 of 5 on day 40.
Take `CC(=O)OCC1OC(n2cc(CBr)nn2)C(OC(C)=O)C(OC(C)=O)C1OC(C)=O` (centres undefined): for the setting “dose: 25.0 mg/kg/injection, schedule: Q04DX003 (ip), vehicle: saline with Tween-80, evaluated on day 33”, the T/C is 135 % of control.
Take `O=c1[nH]cnc2n[nH]nc12`: the survivor count (dose: 800.0 mg/kg/injection, schedule: Q04DX003 (ip), vehicle: Klucel (hydroxypropylcellulose) (HPC)) is 3 of 5 on day 40.
On to `N/C(=N\O)c1cn(C2OC(CO)C(O)C2O)c2ncnc(N)c12` (centres undefined), for which the survivor count (dose: 40.0 mg/kg/injection, schedule: Q04DX003 (ip), vehicle: Klucel (hydroxypropylcellulose) (HPC)) was 0 of 5 on day 35.
`N[C@@H](Cc1ccc(N(CCCl)CCCl)cc1)C(=O)O`: the survivor count (dose: 8.0 mg/kg/injection, schedule: Q04DX003 (ip), vehicle: suspension in saline) is recorded as 3 of 5 on day 42; the survivor count (dose: 16.0 mg/kg/injection, schedule: Q04DX003 (ip), vehicle: suspension in saline) was 0 of 5 on day 42; the survivor count (dose: 32.0 mg/kg/injection, schedule: Q04DX003 (ip), vehicle: suspension in saline) is reported as 0 of 5 on day 42.
As to `O=Cc1ccc(O)c(O)c1`, the survivor count is reported as 3 of 5 on day 35 (dose: 200.0 mg/kg/injection, schedule: Q04DX003 (ip), vehicle: saline with Tween-80) and 2 of 5 on day 35 (dose: 400.0 mg/kg/injection, schedule: Q04DX003 (ip), vehicle: saline with Tween-80).
